The source of these data is PMC4141822.

These are yes or no findings as the source states them, for the method shown. Binding can be weak; no strength is given.

For assay [1], the target named is Thermoproteus tenax Cas3′ (helicase) (Thermoproteus tenax). The experiment in a line: co-refolding reconstitution, soluble fraction by SDS-PAGE; 300 µg of each GdmCl-solubilized Cas5a, Cas3′, Cas3″ and Cas8a2 mixed with purified Cas7 and a Csa5 variant, co-refolded by stepwise dialysis into GdmCl-free buffer; aggregates precipitated (14,000×g, 30 min, 4°C), soluble proteins concentrated and analysed by SDS-PAGE; both purified.

In assay [2] the target is Thermoproteus tenax Cas3″ (DNA nuclease) (Thermoproteus tenax). The assay is described as above.

B1: Thermoproteus tenax Csa5 wild type (TTX_1250) (natural protein, Thermoproteus tenax Kra1, UniProt G4RJZ0 1-130, looked up)
chain: MESVQLKKEELVERAARSVRPAVHLEMAYDVLDELSRSPEKYPEQLAKLSRIVVKVLNDVEDELEHNPQNEELQKARNRLAAWGGYVAELAKRLEEADDRERIRMVRLFCAMALAPDKLTVELKKLLKGR
notes: Csa5 (Csa5b), small subunit of the type I-A Cascade, Thermoproteus tenax Kra1, locus TTX_1250; theoretical mass of the monomer 15.04 kDa; no tag is named and the purification uses none; also called Csa5 WT; Csa5b; source: E. coli Rosetta(DE3)pLysS, purified (heat precipitation 90°C, Blue-Sepharose, MonoQ)
On to B1, for which the binding result in assay [1] and in assay [2] was “binds” in each case.

B2: Thermoproteus tenax Csa5 D30A/D33A (natural protein, Thermoproteus tenax Kra1, UniProt G4RJZ0 1-130, looked up)
chain: MESVQLKKEELVERAARSVRPAVHLEMAYAVLAELSRSPEKYPEQLAKLSRIVVKVLNDVEDELEHNPQNEELQKARNRLAAWGGYVAELAKRLEEADDRERIRMVRLFCAMALAPDKLTVELKKLLKGR
notes: Made by site-directed mutagenesis of the pET24a csa5 construct; source: E. coli Rosetta(DE3)pLysS, purified (heat precipitation 90°C, Blue-Sepharose, MonoQ)
With B2, the binding entry in assay [1] and in assay [2] was “binds” each time.

B3: Thermoproteus tenax Csa5 Y29A (natural protein, Thermoproteus tenax Kra1, UniProt G4RJZ0 1-130, looked up)
chain: MESVQLKKEELVERAARSVRPAVHLEMAADVLDELSRSPEKYPEQLAKLSRIVVKVLNDVEDELEHNPQNEELQKARNRLAAWGGYVAELAKRLEEADDRERIRMVRLFCAMALAPDKLTVELKKLLKGR
notes: as for B2
Take B3: the binding entry in assay [1] and in assay [2] was “binds” each time.

B4: Thermoproteus tenax Csa5 D33A (natural protein, Thermoproteus tenax Kra1, UniProt G4RJZ0 1-130, looked up)
chain: MESVQLKKEELVERAARSVRPAVHLEMAYDVLAELSRSPEKYPEQLAKLSRIVVKVLNDVEDELEHNPQNEELQKARNRLAAWGGYVAELAKRLEEADDRERIRMVRLFCAMALAPDKLTVELKKLLKGR
notes: as for B2
Turning to B4, the binding result in assay [1] and in assay [2] was “binds” throughout.
